Tested on: BAF complex subunits and histone proteins
Assay: Mass spectrometry proteomics of purified HA-SS18 WT and HA-SS18-SSX1 complexes (Tables 5A-5E)
Design: species or system human
Settings: HEK-293T; for Total (total peptides) / Unique (unique peptides): HA-SS18WT_CHR_peptides: protein identified in HA-SS18 WT BAF complex purification from nuclease-treated solubilized chromatin (CHR); for Total (peptides) / Unique (peptides): HA-SS18WT_NE_peptides: proteins co-purified with HA-SS18 WT from nuclear extract (NE)

Row | Molecule | Total (total peptides) | Unique (unique peptides) | Total (peptides) | Unique (peptides)
1 | GPD2 (protein, UniProt P43304 43-727, looked up) Glycerol-3-phosphate …: ADCISEPVNREPPSREAQLLTLQNTSEFDILVIGGGATGSGCALDAVTRGLKTALVERDDFSSGTSSRSTKLIHGGVRYLQKAIMKLDIEQYRMVKEALHERANLLEIAPHLSAPLPIMLPVYKWWQLPYYWVGIKLYDLVAGSNCLKSSYVLSKSRALEHFPMLQKDKLVGAIVYYDGQHNDARMNLAIALTAARYGAATANYMEVVSLLKKTDPQTGKVRVSGARCKDVLTGQEFDVRAKCVINATGPFTDSVRKMDDKDAAAICQPSAGVHIVMPGYYSPESMGLLDPATSDGRVIFFLPWQKMTIAGTTDTPTDVTHHPIPSEEDINFILNEVRNYLSCDVEVRRGDVLAAWSGIRPLVTDPKSADTQSISRNHVVDISESGLITIAGGKWTTYRSMAEDTINAAVKTHNLKAGPSRTVGLFLQGGKDWSPTLYIRLVQDYGLESEVAQHLAATYGDKAFEVAKMASVTGKRWPIVGVRLVSEFPYIEAEVKYGIKEYACTAVDMISRRTRLAFLNVQAAEEALPRIVELMGRELNWDDYKKQEQLETARKFLYYEMGYKSRSEQLTDRSEISLLPSDIDRYKKRFHKFDADQKGFITIVDVQRVLESINVQMDENTLHEILNEVDLNKNGQVELNEFLQLMSAIQKGRVSGSRLAILMKTAEENLDRRVPIPVDRSCGGL | 1 | 1 |  | 
2 | GNAT1 (protein, UniProt P11488 2-350, looked up) Guanine nucleotide-binding …: GAGASAEEKHSRELEKKLKEDAEKDARTVKLLLLGAGESGKSTIVKQMKIIHQDGYSLEECLEFIAIIYGNTLQSILAIVRAMTTLNIQYGDSARQDDARKLMHMADTIEEGTMPKEMSDIIQRLWKDSGIQACFERASEYQLNDSAGYYLSDLERLVTPGYVPTEQDVLRSRVKTTGIIETQFSFKDLNFRMFDVGGQRSERKKWIHCFEGVTCIIFIAALSAYDMVLVEDDEVNRMHESLHLFNSICNHRYFATTSIVLFLNKKDVFFEKIKKAHLSICFPDYDGPNTYEDAGNYIKVQFLELNMRRDVKEIYSHMTCATDTQNVKFVFDAVTDIIIKENLKDCGLF | 1 | 1 |  | 
3 | ERMP1 (protein, UniProt Q7Z2K6 1-904, looked up) Endoplasmic reticulum …: MEWGSESAAVRRHRVGVERREGAAAAPPPEREARAQEPLVDGCSGGGRTRKRSPGGSGGASRGAGTGLSEVRAALGLALYLIALRTLVQLSLQQLVLRGAAGHRGEFDALQARDYLEHITSIGPRTTGSPENEILTVHYLLEQIKLIEVQSNSLHKISVDVQRPTGSFSIDFLGGFTSYYDNITNVVVKLEPRDGAQHAVLANCHFDSVANSPGASDDAVSCSVMLEVLRVLSTSSEALHHAVIFLFNGAEENVLQASHGFITQHPWASLIRAFINLEAAGVGGKELVFQTGPENPWLVQAYVSAAKHPFASVVAQEVFQSGIIPSDTDFRIYRDFGNIPGIDLAFIENGYIYHTKYDTADRILTDSIQRAGDNILAVLKHLATSDMLAAASKYRHGNMVFFDVLGLFVIAYPSRIGSIINYMVVMGVVLYLGKKFLQPKHKTGNYKKDFLCGLGITLISWFTSLVTVLIIAVFISLIGQSLSWYNHFYVSVCLYGTATVAKIILIHTLAKRFYYMNASAQYLGEVFFDISLFVHCCFLVTLTYQGLCSAFISAVWVAFPLLTKLCVHKDFKQHGAQGKFIAFYLLGMFIPYLYALYLIWAVFEMFTPILGRSGSEIPPDVVLASILAGCTMILSSYFINFIYLAKSTKKTMLTLTLVCAITFLLVCSGTFFPYSSNPANPKPKRVFLQHMTRTFHDLEGNAVKRDSGIWINGFDYTGISHITPHIPEINDSIRAHCEENAPLCGFPWYLPVHFLIRKNWYLPAPEVSPRNPPHFRLISKEQTPWDSIKLTFEATGPSHMSFYVRAHKGSTLSQWSLGNGTPVTSKGGDYFVFYSHGLQASAWQFWIEVQVSEEHPEGMVTVAIAAHYLSGEDKRSPQLDALKEKFPDWTFPSAWVCTYDLFVF | 1 | 1 | 2 | 1
4 | GNAT3 (protein, UniProt A8MTJ3 2-354, looked up) Guanine nucleotide-binding …: GSGISSESKESAKRSKELEKKLQEDAERDARTVKLLLLGAGESGKSTIVKQMKIIHKNGYSEQECMEFKAVIYSNTLQSILAIVKAMTTLGIDYVNPRSAEDQRQLYAMANTLEDGGMTPQLAEVIKRLWRDPGIQACFERASEYQLNDSAAYYLNDLDRITASGYVPNEQDVLHSRVKTTGIIETQFSFKDLHFRMFDVGGQRSERKKWIHCFEGVTCIIFCAALSAYDMVLVEDEEVNRMHESLHLFNSICNHKYFSTTSIVLFLNKKDIFQEKVTKVHLSICFPEYTGPNTFEDAGNYIKNQFLDLNLKKEDKEIYSHMTCATDTQNVKFVFDAVTDIIIKENLKDCGLF | 1 | 1 |  | 
5 | EFR3A (protein, UniProt Q14156 1-821, looked up) Protein EFR3 homolog A: MPTRVCCCCSALRPRYKRLVDNIFPEDPKDGLVKTDMEKLTFYAVSAPEKLDRIGSYLAERLSRDVVRHRSGYVLIAMEALDQLLMACHSQSIKPFVESFLHMVAKLLESGEPKLQVLGTNSFVKFANIEEDTPSYHRRYDFFVSRFSAMCHSCHSDPEIRTEIRIAGIRGIQGVVRKTVNDELRATIWEPQHMDKIVPSLLFNMQKIEEVDSRIGPPSSPSATDKEENPAVLAENCFRELLGRATFGNMNNAVRPVFAHLDHHKLWDPNEFAVHCFKIIMYSIQAQYSHHVIQEILGHLDARKKDAPRVRAGIIQVLLEAVAIAAKGSIGPTVLEVFNTLLKHLRLSVEFEANDLQGGSVGSVNLNTSSKDNDEKIVQNAIIQTIGFFGSNLPDYQRSEIMMFIMGKVPVFGTSTHTLDISQLGDLGTRRIQIMLLRSLLMVTSGYKAKTIVTALPGSFLDPLLSPSLMEDYELRQLVLEVMHNLMDRHDNRAKLRGIRIIPDVADLKIKREKICRQDTSFMKKNGQQLYRHIYLGCKEEDNVQKNYELLYTSLALITIELANEEVVIDLIRLAIALQDSAIINEDNLPMFHRCGIMALVAAYLNFVSQMIAVPAFCQHVSKVIEIRTMEAPYFLPEHIFRDKCMLPKSLEKHEKDLYFLTNKIAESLGGSGYSVERLSVPYVPQVTDEDRLSRRKSIVDTVSIQVDILSNNVPSDDVVSNTEEITFEALKKAIDTSGMEEQEKEKRRLVIEKFQKAPFEEIAAQCESKANLLHDRLAQILELTIRPPPSPSGTLTITSGHAQYQSVPVYEMKFPDLCVY | 1 | 1 |  | 
6 | CPA4 (protein, UniProt Q9UI42 114-421, looked up) Carboxypeptidase A4: SSNNFNYGAYHSLEAIYHEMDNIAADFPDLARRVKIGHSFENRPMYVLKFSTGKGVRRPAVWLNAGIHSREWISQATAIWTARKIVSDYQRDPAITSILEKMDIFLLPVANPDGYVYTQTQNRLWRKTRSRNPGSSCIGADPNRNWNASFAGKGASDNPCSEVYHGPHANSEVEVKSVVDFIQKHGNFKGFIDLHSYSQLLMYPYGYSVKKAPDAEELDKVARLAAKALASVSGTEYQVGPTCTTVYPASGSSIDWAYDNGIKFAFTFELRDTGTYGFLLPANQIIPTAEETWLGLKTIMEHVRDNLY | 1 | 1 |  | 
7 | CAPS2 (protein, UniProt Q9BXY5 1-538, looked up) Calcyphosin-2: MDLEVKGVAATSRSQIQPFFGRKKPLQQRWTSESWTNQNSCPPVVPRLDLGSLVDSDDEDNFSYIPLSTANLPNSSSTLGWVTPCQTPYTQYHLNKLDQNIIPENLPAPTDKCKLKYQQCKTEIKEGYKQYSQRNAENTKSNVTHKQSPRNKIDEKCVQDEEANTDDLTTLDRKAILQQGYADNSCDKQQRARKLDAEIVAAEKKKQIVAEQVMIDHLSRAVISDPEQNLAIEQKESDHILPDSKMTPLRFRKRTLHETKIRTHSTLTENVLSHKLQFDGRIVSRNGRDACRELIGFFFTHDQSLTIYEYRQFGKNRTNVLPFIQKSIYSHQCGRRKGKQYRLGDFYVGATLTFLSSDHLSLPESIKENTLLKLRITNIDQIALDSLKTASMEQEDDIIIQETNDRLVFKAIQDVLKEKLHKRGVRILTGLGKYFQQLDKEGNGLLDKADFKQALKVFHLEVSEKDFESAWLILNDNGNGKVDYGEFKRGIIGEMNEYRKSYVRKAFMKLDFNKSGSVPIINIRKCYCAKKHSQVISG | 1 | 1 |  | 
8 | EWSR1 (protein, UniProt Q01844 1-656, looked up) RNA-binding protein EWS: MASTDYSTYSQAAAQQGYSAYTAQPTQGYAQTTQAYGQQSYGTYGQPTDVSYTQAQTTATYGQTAYATSYGQPPTGYTTPTAPQAYSQPVQGYGTGAYDTTTATVTTTQASYAAQSAYGTQPAYPAYGQQPAATAPTRPQDGNKPTETSQPQSSTGGYNQPSLGYGQSNYSYPQVPGSYPMQPVTAPPSYPPTSYSSTQPTSYDQSSYSQQNTYGQPSSYGQQSSYGQQSSYGQQPPTSYPPQTGSYSQAPSQYSQQSSSYGQQSSFRQDHPSSMGVYGQESGGFSGPGENRSMSGPDNRGRGRGGFDRGGMSRGGRGGGRGGMGSAGERGGFNKPGGPMDEGPDLDLGPPVDPDEDSDNSAIYVQGLNDSVTLDDLADFFKQCGVVKMNKRTGQPMIHIYLDKETGKPKGDATVSYEDPPTAKAAVEWFDGKDFQGSKLKVSLARKKPPMNSMRGGLPPREGRGMPPPLRGGPGGPGGPGGPMGRMGGRGGDRGGFPPRGPRGSRGNPSGGGNVQHRAGDWQCPNPGCGNQNFAWRTECNQCKAPKPEGFLPPPFPPPGGDRGRGGPGGMRGGRGGLMDRGGPGGMFRGGRGGDRGGFRGGRGMDRGGFGGGRRGGPGGPPGPLMEQMGGRRGGRGGPGKMDKGEHRQERRDRPY | 1 | 1 | 2 | 1
9 | PRDX1 (protein, UniProt Q06830 2-199, looked up) Peroxiredoxin-1: SSGNAKIGHPAPNFKATAVMPDGQFKDISLSDYKGKYVVFFFYPLDFTFVCPTEIIAFSDRAEEFKKLNCQVIGASVDSHFCHLAWVNTPKKQGGLGPMNIPLVSDPKRTIAQDYGVLKADEGISFRGLFIIDDKGILRQITVNDLPVGRSVDETLRLVQAFQFTDKHGEVCPAGWKPGSDTIKPDVQKSKEYFSKQK | 1 | 1 |  | 
